Results are given in words; binding and its absence hold for the method and conditions named. In cells and extracts the contact can be indirect. Some entries that bind do so weakly or less than the wild type. Where a sequence is shown, tags or fusion partners need not be part of it.
Molecular target: T1, Human PRELP (proline and arginine-rich end leucine-rich repeat protein) with a C-terminal FLAG tag, overexpressed in Expi293 cells (human) (UniProt P51888)
T1 sequence: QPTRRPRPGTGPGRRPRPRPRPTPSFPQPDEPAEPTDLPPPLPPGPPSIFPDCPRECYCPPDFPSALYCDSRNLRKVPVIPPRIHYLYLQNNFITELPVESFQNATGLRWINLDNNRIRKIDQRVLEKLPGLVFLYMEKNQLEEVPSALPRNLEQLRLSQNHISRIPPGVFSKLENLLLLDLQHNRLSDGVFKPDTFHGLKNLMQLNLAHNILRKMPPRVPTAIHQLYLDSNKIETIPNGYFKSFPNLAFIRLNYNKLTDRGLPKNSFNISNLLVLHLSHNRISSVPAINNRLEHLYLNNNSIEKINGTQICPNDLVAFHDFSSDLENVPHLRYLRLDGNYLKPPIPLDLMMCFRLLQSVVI
Test: co-IP; anti-FLAG (DDDDK) gel on DDM extract of the membrane fraction of Expi293 cells expressing PRELP-FLAG, eluates analysed by western blot with monoclonal antibodies to IGFI-R beta and p75NTR; control-transfected cells alongside

Protein sequences, listed by entry. Tags and fused reporters are not part of them. Residues count along the entry.
UniProt P08069, residues 31-1367: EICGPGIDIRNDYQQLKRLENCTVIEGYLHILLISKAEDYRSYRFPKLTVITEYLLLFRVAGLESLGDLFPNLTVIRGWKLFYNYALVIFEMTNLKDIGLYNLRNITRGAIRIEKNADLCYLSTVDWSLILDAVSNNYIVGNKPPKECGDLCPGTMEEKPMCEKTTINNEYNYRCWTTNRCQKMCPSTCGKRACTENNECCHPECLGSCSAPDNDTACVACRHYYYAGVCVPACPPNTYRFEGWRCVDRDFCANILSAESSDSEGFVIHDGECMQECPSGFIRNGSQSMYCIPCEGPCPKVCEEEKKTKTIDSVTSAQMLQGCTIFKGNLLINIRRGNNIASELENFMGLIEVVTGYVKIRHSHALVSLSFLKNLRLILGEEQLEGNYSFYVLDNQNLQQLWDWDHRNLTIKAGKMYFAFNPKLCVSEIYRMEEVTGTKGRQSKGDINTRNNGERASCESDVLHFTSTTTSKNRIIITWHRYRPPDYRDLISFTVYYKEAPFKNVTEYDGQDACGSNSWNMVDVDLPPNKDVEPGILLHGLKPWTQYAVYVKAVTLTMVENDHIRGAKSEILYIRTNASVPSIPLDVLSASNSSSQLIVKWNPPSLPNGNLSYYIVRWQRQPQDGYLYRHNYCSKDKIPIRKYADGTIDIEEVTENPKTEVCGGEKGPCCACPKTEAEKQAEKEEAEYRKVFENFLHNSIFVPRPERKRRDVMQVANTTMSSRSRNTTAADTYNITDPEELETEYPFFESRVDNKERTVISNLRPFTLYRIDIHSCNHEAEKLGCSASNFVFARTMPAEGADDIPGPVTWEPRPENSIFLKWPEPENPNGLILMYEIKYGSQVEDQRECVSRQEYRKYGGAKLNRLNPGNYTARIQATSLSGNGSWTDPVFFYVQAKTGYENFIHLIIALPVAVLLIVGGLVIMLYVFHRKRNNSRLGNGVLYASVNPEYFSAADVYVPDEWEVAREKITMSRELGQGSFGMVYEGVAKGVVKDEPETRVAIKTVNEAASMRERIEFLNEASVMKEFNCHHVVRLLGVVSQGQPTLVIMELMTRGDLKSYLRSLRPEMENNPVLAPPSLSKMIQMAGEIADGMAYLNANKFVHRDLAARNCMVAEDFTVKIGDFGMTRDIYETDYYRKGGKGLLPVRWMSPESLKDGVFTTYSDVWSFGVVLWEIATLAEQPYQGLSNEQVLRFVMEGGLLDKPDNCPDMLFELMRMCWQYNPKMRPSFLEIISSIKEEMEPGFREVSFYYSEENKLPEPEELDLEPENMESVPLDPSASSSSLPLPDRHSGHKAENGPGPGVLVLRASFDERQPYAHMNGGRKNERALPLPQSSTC
UniProt P08138, residues 29-427: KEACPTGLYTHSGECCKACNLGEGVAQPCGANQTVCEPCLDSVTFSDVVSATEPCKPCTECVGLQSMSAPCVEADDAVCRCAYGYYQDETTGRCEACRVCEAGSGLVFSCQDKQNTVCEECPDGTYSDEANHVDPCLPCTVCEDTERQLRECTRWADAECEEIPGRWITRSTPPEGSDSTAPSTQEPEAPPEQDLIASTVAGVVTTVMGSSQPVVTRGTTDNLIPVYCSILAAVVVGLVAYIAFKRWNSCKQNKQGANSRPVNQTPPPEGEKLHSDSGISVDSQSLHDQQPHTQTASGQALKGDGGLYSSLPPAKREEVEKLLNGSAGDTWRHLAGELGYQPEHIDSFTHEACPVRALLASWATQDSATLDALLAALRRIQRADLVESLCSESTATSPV

Substance | binding
Insulin-like growth factor 1 receptor (from UniProt P08069 31-1367) | binds
Low-affinity nerve growth factor receptor p75NTR (from UniProt P08138 29-427) | binds
